# Results as given in article PMC5805723.
# These are yes or no findings as the source states them, for the method shown. Binding seen in cells or lysates may run through a third protein. A result given as binding can be weak or reduced; the word gives no strength.
# Target: GABPB (human (endogenous in K1))
# Test: co-IP; endogenous proteins in K1 cell lysate (RIPA buffer with protease and phosphatase inhibitors); 0.5-1.0 ug of the indicated antibody for 1 h at 4 °C, Protein A/G Plus-Agarose overnight at 4 °C, four washes with lysis buffer, western blot
binder,measurement,value
"GABPA (protein, UniProt Q06546 1-454) MTKREAEELIEIEIDGTEKAECTEESIVEQTYAPAECVSQAIDINEPIGNLKKLLEPRLQCSLDAHEICLQDIQLDPERSLFDQGVKTDGTVQLSVQVISYQGIEPKLNILEIVKPADTVEVVIDPDAHHAESEAHLVEEAQVITLDGTKHITTISDETSEQVTRWAAALEGYRKEQERLGIPYDPIQWSTDQVLHWVVWVMKEFSMTDIDLTTLNISGRELCSLNQEDFFQRVPRGEILWSHLELLRKYVLASQEQQMNEIVTIDQPVQIIPASVQSATPTTIKVINSSAKAAKVQRAPRISGEDRSSPGNRTGNNGQIQLWQFLLELLTDKDARDCISWVGDEGEFKLNQPELVAQKWGQRKNKPTMNYEKLSRALRYYYDGDMICKVQGKRFVYKFVCDLKTLIGYSAAELNRLVTECEQKKLAKMQLHGIAQPVTAVALATASLQTEKDN",binding,binds
